Taken from: PubChem BioAssay AID686937 (Drosophila RNAi Screening Center, 2013)
The screen tested about 23,000 reagents; below is a random part of those with a known target gene and a result. 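Reduced-secretion tags in replicate 1 do not always agree with the z-scores; no criterion for assigning the tags was given.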 The numbers tell different reagents against one gene apart. The record does not give: the amount of reagent.

Purpose: 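Genes in the fly needed for secretion of protein constitutively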 (primary screen)
Cell system: Drosophila S2 cells expressing secreted horseradish peroxidase
Knock-down reagent: long dsRNA against Drosophila genes
Timing: about 5.5 days (5 days dsRNA, then 12 h reporter induction)
Challenge: reporter expression induced after 5 days of dsRNA, read 12 h later; inducer not stated
Measurement: 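After 5 days of dsRNA and 12 h of reporter induction, medium peroxidase read by chemiluminescence and scored as per-plate z-score; higher values mean more reporter released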
Reading the numbers: z-score: higher = more reporter secreted into medium

gene | reagent | z-score, replicate 1 | z-score, replicate 2 | z-score, replicate 3 | z-score, replicate 4 | phenotype, replicate 1
eIF3e | 1 | -4.19 | -1.85 | – | – | reduced secretion
EMRE | 1 | 0.54 | 0.42 | – | – | –
tll | 1 | -0.25 | -0.1 | – | – | –
CG4617 | 1 | 0.28 | 0.04 | – | – | –
CG7366 | 1 | 0.21 | 0.42 | – | – | –
Fas1 | 1 | -0.17 | 0.04 | – | – | –
CG5065 | 1 | 0.03 | 0.4 | – | – | –
dysc | 1 | -4.58 | -0.14 | -0.2 | -4.81 | –
dysc | 2 | 0.43 | -0.09 | – | – | –
dysc | 3 | -1.27 | -5.85 | – | – | reduced secretion
dysc | 4 | 1.13 | 0.41 | – | – | –
dysc | 5 | 0.18 | 0.55 | – | – | –
CG34328 | 1 | -0.09 | -2.66 | – | – | –
VhaM9.7-a | 1 | 0.24 | -0.01 | – | – | –
CG14109 | 1 | 0.4 | 0.46 | – | – | –
Adk1 | 1 | 0.32 | 0.55 | – | – | –
GLS | 1 | 0.23 | 0.27 | – | – | –
CG12204 | 1 | 0.17 | 0.25 | – | – | –
CG13060 | 1 | -0.09 | 0.05 | – | – | –
CG5966 | 1 | 0.33 | 0.36 | – | – | –
Cluap1 | 1 | 0.45 | 0.14 | -0.87 | -0.26 | –
cnn | 1 | 0.51 | 0.14 | – | – | –
cnn | 2 | -0.13 | 0 | – | – | –
Usp32 | 1 | 0.13 | 0.25 | – | – | –
tap | 1 | -0.53 | -0.01 | – | – | –
Nadsyn | 1 | -0.06 | -0.95 | – | – | –
Cap-D3 | 1 | 0.44 | 0.25 | – | – | –
frj | 1 | 0.24 | 0.14 | – | – | –
CG30273 | 1 | -0.38 | -0.75 | – | – | reduced secretion
CG5096 | 1 | 0.42 | 0.47 | – | – | –
MED28 | 1 | -3.7 | -3.09 | – | – | reduced secretion
neb | 1 | 0.18 | 0.13 | – | – | –
CG10163 | 1 | 0.37 | 0.31 | – | – | –

Entries above whose target name begins with N or n (2):
gene | reagent | z-score, replicate 1 | z-score, replicate 2 | z-score, replicate 3 | z-score, replicate 4 | phenotype, replicate 1
Nadsyn | 1 | -0.06 | -0.95 | – | – | –
neb | 1 | 0.18 | 0.13 | – | – | –
